For three molecules, binding results are on record in paper PMC8514525.

Amino acid sequences for entries named in this document (tags omitted). Residues count along the entry.
UniProt P11021, residues 19-654: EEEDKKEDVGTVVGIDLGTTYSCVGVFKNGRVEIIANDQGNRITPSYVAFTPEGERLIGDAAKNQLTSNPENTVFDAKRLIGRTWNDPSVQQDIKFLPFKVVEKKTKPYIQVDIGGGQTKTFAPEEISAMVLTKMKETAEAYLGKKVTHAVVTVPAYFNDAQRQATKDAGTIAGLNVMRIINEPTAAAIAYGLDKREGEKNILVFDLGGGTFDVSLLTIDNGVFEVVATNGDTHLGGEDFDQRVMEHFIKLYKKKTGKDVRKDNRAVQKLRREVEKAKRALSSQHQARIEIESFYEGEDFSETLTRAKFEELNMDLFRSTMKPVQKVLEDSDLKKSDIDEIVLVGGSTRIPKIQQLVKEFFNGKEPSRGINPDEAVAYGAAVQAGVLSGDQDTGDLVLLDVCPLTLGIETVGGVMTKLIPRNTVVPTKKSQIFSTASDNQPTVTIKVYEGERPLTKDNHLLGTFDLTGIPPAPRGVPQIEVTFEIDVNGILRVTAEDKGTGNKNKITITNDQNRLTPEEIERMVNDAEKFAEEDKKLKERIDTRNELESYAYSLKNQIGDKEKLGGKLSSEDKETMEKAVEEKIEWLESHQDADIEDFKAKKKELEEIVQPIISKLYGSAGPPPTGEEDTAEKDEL

No constants are given. Whether binding was seen depends on the method and setting. Binding seen in cells or lysates may run through a third protein. Some entries that bind do so weakly or less than the wild type.

The target of assay [1] is T1, S100 calcium-binding protein 16 (S100A16) (human (endogenous in HK-2)) (UniProt Q96FQ6).
T1 sequence: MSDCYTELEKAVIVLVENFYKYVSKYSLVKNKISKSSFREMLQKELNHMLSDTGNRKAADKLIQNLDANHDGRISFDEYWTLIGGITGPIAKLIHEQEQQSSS
In words: co-IP; lysates (NP40 lysis buffer) of wild-type or S100A16-overexpressing HK-2 cells, 1 mg protein incubated with anti-S100A16 or anti-GRP78 overnight at 4 °C, protein A beads 2-6 h, three washes in NP40 lysis buffer, blots with anti-S100A16, anti-GRP78, anti-IRE1α; cells with or without 10 µM BAPTA-AM.

For assay [2], the target named is Glucose-regulated protein 78 kD (GRP78) (human (endogenous in HK-2)) (UniProt P11021). The assay is described as above.

Take “Glucose-regulated protein 78 kD (GRP78) (from UniProt P11021 19-654)”: the binding result in assay [1] is on record as “binds”.

B1: S100 calcium-binding protein 16 (S100A16) (protein, UniProt Q96FQ6 1-103)
chain: T1 sequence
Regarding B1, in assay [2], the binding result is listed as “binds”.

B2: S100A16 overexpressed from lentivirus (Lenti-S100A16) in HK-2 cells (protein, UniProt Q96FQ6 1-103)
chain: T1 sequence
Consider B2, for which the binding entry in assay [2] is “binds”.
